These are yes or no findings as the source states them, for the method shown. Binding seen in cells or lysates may run through a third protein. Some binding calls cover weakened binding; strength is not graded here.
Biological target: PB2-Glc2 of influenza A virus A/WSN/33 (H1N1WSN) (influenza A virus A/WSN/33 (H1N1)) (UniProt P03427)
Test: split reporter

Amino acid sequences for entries named in this document (tags omitted).
UniProt P03427: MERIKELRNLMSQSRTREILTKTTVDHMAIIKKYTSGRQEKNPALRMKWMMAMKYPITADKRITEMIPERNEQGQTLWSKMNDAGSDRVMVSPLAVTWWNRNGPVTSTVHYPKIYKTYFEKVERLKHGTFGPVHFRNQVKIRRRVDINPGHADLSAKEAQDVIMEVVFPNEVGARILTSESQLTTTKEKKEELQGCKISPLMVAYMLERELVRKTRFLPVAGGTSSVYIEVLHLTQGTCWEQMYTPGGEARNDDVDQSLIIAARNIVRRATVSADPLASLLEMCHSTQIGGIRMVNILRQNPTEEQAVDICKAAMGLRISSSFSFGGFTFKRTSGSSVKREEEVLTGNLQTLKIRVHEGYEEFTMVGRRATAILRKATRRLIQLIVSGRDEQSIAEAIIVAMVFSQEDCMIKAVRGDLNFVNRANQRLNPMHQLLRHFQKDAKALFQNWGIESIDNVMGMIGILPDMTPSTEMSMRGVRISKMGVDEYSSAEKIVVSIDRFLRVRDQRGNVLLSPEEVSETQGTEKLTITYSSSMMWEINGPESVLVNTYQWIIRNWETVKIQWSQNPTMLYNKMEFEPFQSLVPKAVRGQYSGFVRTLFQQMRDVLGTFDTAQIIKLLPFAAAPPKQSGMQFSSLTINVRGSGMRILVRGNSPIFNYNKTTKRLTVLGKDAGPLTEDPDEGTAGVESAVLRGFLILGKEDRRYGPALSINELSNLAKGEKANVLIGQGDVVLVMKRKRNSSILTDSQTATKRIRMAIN
UniProt P52294: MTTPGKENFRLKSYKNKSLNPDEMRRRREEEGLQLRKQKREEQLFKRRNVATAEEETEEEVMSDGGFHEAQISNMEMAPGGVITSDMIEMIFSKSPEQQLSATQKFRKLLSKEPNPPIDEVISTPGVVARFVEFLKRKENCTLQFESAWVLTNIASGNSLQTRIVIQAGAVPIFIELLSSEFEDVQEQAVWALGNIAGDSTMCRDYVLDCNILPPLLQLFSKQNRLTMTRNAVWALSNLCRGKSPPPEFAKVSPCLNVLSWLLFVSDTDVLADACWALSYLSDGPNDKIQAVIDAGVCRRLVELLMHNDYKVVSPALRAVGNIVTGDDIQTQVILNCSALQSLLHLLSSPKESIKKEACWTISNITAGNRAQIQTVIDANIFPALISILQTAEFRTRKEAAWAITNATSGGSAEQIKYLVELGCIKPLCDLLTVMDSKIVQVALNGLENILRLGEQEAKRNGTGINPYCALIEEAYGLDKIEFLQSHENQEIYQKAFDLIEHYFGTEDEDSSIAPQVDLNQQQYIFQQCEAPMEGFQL
UniProt P37198: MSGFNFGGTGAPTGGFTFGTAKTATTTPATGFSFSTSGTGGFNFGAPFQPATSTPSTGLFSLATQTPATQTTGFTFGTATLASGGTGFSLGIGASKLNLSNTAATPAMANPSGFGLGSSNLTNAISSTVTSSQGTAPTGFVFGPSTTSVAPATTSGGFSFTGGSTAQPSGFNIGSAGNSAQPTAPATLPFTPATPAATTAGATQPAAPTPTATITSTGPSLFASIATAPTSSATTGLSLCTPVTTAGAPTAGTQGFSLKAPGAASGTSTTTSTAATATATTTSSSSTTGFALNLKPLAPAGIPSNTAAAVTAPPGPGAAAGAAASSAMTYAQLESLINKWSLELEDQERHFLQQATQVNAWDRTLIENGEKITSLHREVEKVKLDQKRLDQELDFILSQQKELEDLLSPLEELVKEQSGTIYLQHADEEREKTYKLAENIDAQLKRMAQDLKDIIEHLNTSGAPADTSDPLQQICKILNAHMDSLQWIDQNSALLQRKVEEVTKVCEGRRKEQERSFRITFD

Row | Substance | binding
1 | KPNA1 (from UniProt P52294 1-538) | binds
2 | NUP62 (from UniProt P37198 1-522) | binds

Reference: article PMC5700371
